{"source": "PubChem BioAssay AID743454 | Peter MacCallum Cancer Centre, 2014", "assay": "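Search for knock-downs that restore vorinostat killing in resistant colon cancer cells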 (primary screen)", "cell system": "human HCT116-VR colon cancer cells, selected for vorinostat resistance", "reagents": "siRNA pool against human genes, 40 nM siRNA pool", "timing": "vorinostat for 24 h, read-out about 72 h after transfection", "challenge": "vorinostat at 2.5 µM final", "measurement": "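Two measures, CellTiter-Fluor viability and luminescent caspase 3/7 activity, each as fold change against same-plate mock wells, mean of duplicates, then screen-wide robust z-score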", "scale": "viability robust z-score: higher = more viable cells than screen typical; caspase robust z-score: higher = more caspase 3/7 activity than screen typical", "hit rule": "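a knock-down is a hit when classed RV1 or RV2 for lowered viability, or CA1 or CA2 for caspase activation; those lethal without drug were dropped; hits were retested singly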", "note": "Shown is an unselected part of about 18,000 deposited reagents. 450 of them (2.5%) were called active. 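Single biological run; no consistent viability z cut-off exists, so the class columns, not z-scores, define the calls.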"}
{"gene": "IFITM2", "viability hit class": "no change", "caspase hit class": "no change", "viability robust z-score": 0.28, "caspase robust z-score": 0.48, "Outcome": "inactive"}
{"gene": "LRP1", "viability hit class": "no change", "caspase hit class": "no change", "viability robust z-score": -1.82, "caspase robust z-score": 0.46, "Outcome": "inactive"}
{"gene": "CIC", "viability hit class": "no change", "caspase hit class": "no change", "viability robust z-score": 0.3, "caspase robust z-score": 1.75, "Outcome": "inactive"}
{"gene": "MAP1A", "viability hit class": "no change", "caspase hit class": "no change", "viability robust z-score": -2.04, "caspase robust z-score": -1.19, "Outcome": "inactive"}
{"gene": "LILRA4", "viability hit class": "no change", "caspase hit class": "no change", "viability robust z-score": 0.1, "caspase robust z-score": -0.06, "Outcome": "inactive"}
{"gene": "SLC18A1", "viability hit class": "no change", "caspase hit class": "no change", "viability robust z-score": -0.81, "caspase robust z-score": -0.35, "Outcome": "inactive"}
{"gene": "RABIF", "viability hit class": "no change", "caspase hit class": "no change", "viability robust z-score": 1.04, "caspase robust z-score": -0.45, "Outcome": "inactive"}
{"gene": "WDR37", "viability hit class": "no change", "caspase hit class": "no change", "viability robust z-score": -1.33, "caspase robust z-score": 0.11, "Outcome": "inactive"}

Entries listed so far whose target name begins with L or l (2):
{"gene": "LRP1", "viability hit class": "no change", "caspase hit class": "no change", "viability robust z-score": -1.82, "caspase robust z-score": 0.46, "Outcome": "inactive"}
{"gene": "LILRA4", "viability hit class": "no change", "caspase hit class": "no change", "viability robust z-score": 0.1, "caspase robust z-score": -0.06, "Outcome": "inactive"}

Continued.
{"gene": "ALDH7A1", "viability hit class": "no change", "caspase hit class": "no change", "viability robust z-score": -1.38, "caspase robust z-score": 2.07, "Outcome": "inactive"}
{"gene": "TBX18", "viability hit class": "no change", "caspase hit class": "no change", "viability robust z-score": 0.87, "caspase robust z-score": -0.4, "Outcome": "inactive"}
{"gene": "AGL", "viability hit class": "no change", "caspase hit class": "no change", "viability robust z-score": -0.34, "caspase robust z-score": -0.53, "Outcome": "inactive"}
{"gene": "TIGAR", "viability hit class": "no change", "caspase hit class": "no change", "viability robust z-score": 1.71, "caspase robust z-score": -0.73, "Outcome": "inactive"}
